Test results from article PMC3979679.
No constants are given. Whether binding was seen depends on the method and setting. Some binding calls cover weakened binding; strength is not graded here.

Sequences of proteins named here, by UniProt entry; tags and fusion partners are left off. A change or cut given only in a name is not applied to a line headed by its entry. A line that says so, or that is headed by a name, gives the form on record, which may keep a tag or linker. Residues count along the entry.
UniProt Q91981, residues 19-233: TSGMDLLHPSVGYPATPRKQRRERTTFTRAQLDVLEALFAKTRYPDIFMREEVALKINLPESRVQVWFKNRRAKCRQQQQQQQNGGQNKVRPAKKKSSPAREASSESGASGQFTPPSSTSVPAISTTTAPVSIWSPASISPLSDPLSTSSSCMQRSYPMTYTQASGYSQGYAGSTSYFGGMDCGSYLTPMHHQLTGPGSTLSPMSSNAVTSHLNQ
GTP binding protein 4 (gtpbp4), prey (Q7ZVR0, form named): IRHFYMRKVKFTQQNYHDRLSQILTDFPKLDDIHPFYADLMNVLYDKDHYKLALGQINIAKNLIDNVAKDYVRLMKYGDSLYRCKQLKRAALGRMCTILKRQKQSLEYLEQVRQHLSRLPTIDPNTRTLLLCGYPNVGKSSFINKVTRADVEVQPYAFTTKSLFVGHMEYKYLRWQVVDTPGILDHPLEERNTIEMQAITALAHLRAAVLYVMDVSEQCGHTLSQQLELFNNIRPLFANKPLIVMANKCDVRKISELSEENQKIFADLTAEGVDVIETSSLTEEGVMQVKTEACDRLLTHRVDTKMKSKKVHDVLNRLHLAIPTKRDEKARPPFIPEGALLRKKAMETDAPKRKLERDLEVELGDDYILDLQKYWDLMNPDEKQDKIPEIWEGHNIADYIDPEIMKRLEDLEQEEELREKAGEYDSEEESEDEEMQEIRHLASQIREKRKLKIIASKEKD

Target: T1, Mib2-C-RF12 (781-999 aa) (zebrafish) (UniProt A0AR23)
T1 sequence: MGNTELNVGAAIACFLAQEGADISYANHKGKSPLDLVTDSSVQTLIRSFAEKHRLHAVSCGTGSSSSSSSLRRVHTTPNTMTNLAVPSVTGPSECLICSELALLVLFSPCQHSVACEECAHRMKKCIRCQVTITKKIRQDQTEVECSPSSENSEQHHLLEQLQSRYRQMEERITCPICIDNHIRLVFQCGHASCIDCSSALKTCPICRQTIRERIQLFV
Assay: two-hybrid; first screen (Hybrigenics): LexA DNA-binding domain-bait and Gal4 activation domain-prey, HIS3 reporter, in the nucleus; random-primed Danio rerio embryo (18-20 hpf) cDNA library

| Substance | binding |
| --- | --- |
| orthodenticle homolog 2 (otx2), prey (from UniProt Q91981 19-233) (domain or fragment) | binds |
| GTP binding protein 4 (gtpbp4), prey (from UniProt Q7ZVR0 43-502) (domain or fragment) | binds |
